# Data published in PubChem BioAssay AID1508600 (Functional Genomics Laboratory (NCATS/FGL), 2020).
# Out of some 53,000 sequences screened, about 3,700 (7%) were called active.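 The calls were made as follows: active = gene knockdowns whose robust z-score for IL-1 alpha signal is at least 2 or at most -2, so actives lie on both sides; inactive = the rest.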 The list shows a part of the results.
# Assay: Components of the Cytosolic LPS Sensing Pathway: Gene Identification via Genome-wide siRNA Screen;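 also: robust z of the log signal after scaling to non-targeting control siRNA wells of the plate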
# Conditions: RAW264.7 macrophages, IL-1a HTRF, actives lie on both sides, screened at 100 nM (by protocol), cells primed 5 h with Pam3CSK4 first
# In short: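 Using IL-1a HTRF as read-out, the screen measured release from RAW264.7 cells after 48h siRNA knockdown (100 nM), 5 h Pam3CSK4 priming and 24 h cytosolic LipidA. Values were expressed relative to negative-control wells as robust z-scores.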
row,Sequence,z-score
1,GCCACCCUUCUGGAGAUUCTT against Gm6787,inactive: 1.49
2,GGCAGGAAACCAACAAAGATT against Bmp8b,inactive: -1.84
3,GGAAUUCCACAGAUAAUGGTT against Vmn1r82,inactive: 0.448
4,GGAUGAGAAUCUUCAGGUUTT against Mtmr3,inactive: 0.421
5,GGUAUAAACCAAAAAGCAGTT against Wdr27,inactive: -0.522
6,GGGUAAACCUCUCUUGUUATT against Hs3st3a1,inactive: 0.0265
7,GGUUGACAACACAUCUGCUTT against Ugt2b34,inactive: -0.766
8,GCCGAAGACGGAGUAAGUATT against Epha4,inactive: -0.901
9,GGCCAGAUGACAUUUUAGGTT against Map3k9,inactive: 0.24
10,CCUAUUAUACUGAUCUCGGTT against Gm5420,inactive: -0.841
11,CCAUUCUUUCCUAUGGCUATT against Olfr1415,inactive: 1.06
12,GGAUGUGGGCACAAAAACUTT against St6gal1,inactive: -0.953
13,GCCCAACAUCUGAACAUGCTT against Olfr738,inactive: 0.446
14,GUCCAUAAGCGUACAAUUCTT against Olfr410,inactive: -1.98
15,GCCCUACGAUACAGCUUCATT against Psmd7,inactive: -0.296
16,GGAAUCGACAUUGAAUGUGTT against Rmnd5b,inactive: -1.41
17,GCAAAAAUUGAAGUCAGUGTT against Serpine2,inactive: 0.401
18,GGGAUGUUCUUCAAUCCUGTT against Hecw2,inactive: 0.0154
19,GGGUCUGAUCUGUAAUUCATT against Pate4,inactive: 0.0449
20,GCCAGAACCGCAUAUUCUUTT against Cks2,inactive: -0.481
21,CCACAGUAUCUAAAAAGAGTT against Ubc,inactive: -0.237
22,GGACUUCAGACAAUCAAAATT against Gbp5,inactive: 0.691

# Two entries from above, with tabs:
row	Sequence	z-score
2	GGCAGGAAACCAACAAAGATT against Bmp8b	inactive: -1.84
3	GGAAUUCCACAGAUAAUGGTT against Vmn1r82	inactive: 0.448

# (continued)

row,Sequence,z-score
1,GGAGAAAGGAAAAUAAGAGTT against Npy6r,inactive: -0.889
2,GGAAGUGUACCUCAACAGCTT against Lrig1,inactive: 1.78
3,GGAAGAGCUCAACAUCAUUTT against Cnnm1,inactive: -1.56
4,CGCUCAGAAGUUGUAGGUGTT against Olfr1264,inactive: 0.278
5,GGCAAUUCUUAGGACAAGUTT against Zfp345,inactive: 1.09
6,CCUGACACCUAACUUUAAATT against C230013L11Rik,inactive: 0.824
7,GCAGACCGGAUACUGAACATT against Ddx47,inactive: 0.551
8,GGAGACUUAGAAAAAGACUTT against Olfr1426,inactive: 1.17
9,GGAAGUAUUGAUCAAGUUGTT against Mfsd8,inactive: 1.65
10,GGUGUUUAUCCUAAUAAACTT against Sox12,inactive: -0.59
11,GGUGGAUUGUCACACGAGUTT against Eif2ak2,inactive: -0.684
12,GGAUUCGUAGUGGCUUCAGTT against Htra2,inactive: 1.16
13,GCCUCUCAACAUGAAUUAATT against Gm9918,inactive: 0.524
14,GCAAGUCUUAAAGCUCUAGTT against Olfr601,inactive: 0.818
15,CCCAGGAACAAUAAAGAGGTT against Twist2,inactive: -0.532
16,GGCUUAUGACGAAUUAGUCTT against Ubn2,inactive: 0.274
17,GCAGGAUACAUUAAUUGUUTT against Ppp4r3b,inactive: 0.593
18,CGUACAUCGUCGAGAUUUUTT against Rims1,inactive: 0.839
19,GGUCAAAAGGAUUCCUGCATT against Gzmk,inactive: -0.183
20,GGUUCCAAAGUGUUUCUGATT against Nsmaf,inactive: 0.0444
21,GGACUUGGUCAAUCUGACATT against Lrtm2,inactive: -0.262
22,GGCCCAUCCUGAAACCAAATT against Wfdc15b,active: -2.04

# Part of the list above, as tab-separated lines.
row	Sequence	z-score
11	GGUGGAUUGUCACACGAGUTT against Eif2ak2	inactive: -0.684
12	GGAUUCGUAGUGGCUUCAGTT against Htra2	inactive: 1.16

# Carrying on:

row,Sequence,z-score
1,GCAGGAUUGUUAAGAGAAATT against Gnaq,inactive: 0.434
2,GGACAUUCUUUAAGAAGAUTT against Tjp3,inactive: -0.584
3,GGUGUGUUCCAUAUGACAATT against P2rx7,inactive: 1.28
4,CGAAUCUGGGAUUUAUCCATT against Tmem165,inactive: -0.527
5,GGUAAAAAUAGCAACAGAATT against Cpxm2,inactive: -1.14
6,GGACAAAGUGAAUUAUAGCTT against Tmem123,inactive: 1.12
7,GGAAAGCUUUAAAAAAUCCTT against Mlh1,inactive: -0.734
8,GCAUGGGCAUAACCGAAAGTT against Rex2,inactive: -0.332
9,GGAUGAAGAAAACUGGCUUTT against Tsx,inactive: -0.764
10,GGAUGCUCAGGAGAAGCUGTT against Tpm3,inactive: -0.000785
11,GGACCUCCACCGUUACUACTT against Sgsh,inactive: 0.367
12,GGCAAAUUUAGAUAAGUACTT against Cyp39a1,inactive: 0.64
13,GGCAAUUUCCAAGCAGUUUTT against Wnt8b,inactive: -0.27
14,GGAUCUAAGUUUGAUGUCGTT against Ugt2b1,inactive: -1.7
15,GGAUCCCAGUUCUGGGUAATT against Dok1,inactive: -0.0628
16,GGUGAAAGCAGAAAUGGAGTT against Dpysl5,inactive: -0.63
17,CCAUUGAUCGUUUAGUCAATT against Trim33,inactive: 0.836
18,GGUGGGAUGCAGAUCUUUGTT against Ubc,inactive: 1.38
19,GGAAAAAAGAUGAAUUGCCTT against Cbx8,inactive: 1.63
20,CGUAUUAUCUGAGUGAACATT against Fth1,inactive: -0.974
21,GGCGGUUUCACCUAUACAATT against Rspo4,inactive: 0.821
22,GGCAGGUACAGAAACAGUUTT against Olfr432,inactive: -1.9

row,Sequence,z-score
1,GGUUGCAUUUCCAAAAACUTT against Gng10,inactive: -0.611
2,CCCAUUCACUCAUCACAUGTT against F630003A18Rik,inactive: -1.4
3,GGGCAAUUUGUUCGACCCATT against Abca2,inactive: -0.14
4,GGAGCUUGCCAUAUUCCUCTT against Leprotl1,inactive: 0.915
5,GGGAGUGGUUGUCUAUUCCTT against Nip7,inactive: 0.00825
6,GGAGAAAAUGAAGAAGGAATT against Taf5,inactive: -1.99
7,CCCAAAUUGAUCUCAGAGATT against Cdc42,inactive: -1.14
8,GGAAGAUACGUGCAAAAUGTT against Rbms2,inactive: -0.562
9,CGAAUAGUAGAAGAAACUCTT against Osgepl1,inactive: 0.904
10,CCACGCUACCUUCAAGAGATT against Clec14a,inactive: 0.946
11,GGCCAAGUUAGUUGAACCCTT against Dock11,inactive: -0.335
12,GGAAGAAACAACAAUGAUCTT against Calhm5,inactive: 0.556
13,GCAUUUCGCCUCUUUCAUATT against Elac1,inactive: -0.405
14,CGGGCUACCAUUAUGGUGATT against Atp6ap2,inactive: 0.382
15,GCAGGUUAUACGCUUAGAUTT against Irx5,inactive: -0.0628
16,GGAUGACCAGACCUUGACGTT against Fgfrl1,inactive: -1.12
17,GGGCUUAAAACUUUUCAUATT against Cenpi,inactive: -0.971
18,GGGUUUUCUUUGUUUUAGUTT against Trim8,inactive: 0.347
19,GGCAAUUUCACGAUUUGCUTT against Eif2b4,inactive: -0.532
20,CCUACUUAGUGUCAGAAGATT against M1ap,inactive: -0.115
21,GGCAUGCUUGGCUUAUUUGTT against Kcnk4,inactive: 0.0317
22,GGUUGGAAACACAGCAAAATT against Cenpq,inactive: -0.516

row,Sequence,z-score
1,GGAUGUCCUACUAGUUAUUTT against 9130401M01Rik,inactive: 1.35
2,GGAAGACAUUGUCUUGUUUTT against Mindy4,inactive: 1.25
3,CCCUUUCGACAGAUUAGACTT against Zfp69,inactive: -1.23
4,GGUAUGAAUACCACUGGGCTT against Mob1a,inactive: 0.598
5,GCUGUGGAACUUAUGUUUUTT against Faxc,inactive: -0.518
6,GUAGAAAACAUCUCACAAUTT against Krtap21-1,inactive: 0.319
7,CCGGACCUUAAAAAUGGGCTT against 4930465K10Rik,inactive: 0.921
8,GGAGAUUUUCCAGAGGCUGTT against Josd1,active: -2.24
9,GCCUUACUGACUCGUGUCCTT against Ccp110,active: -2.33
10,GGGAAAACUUGGGUAUUUCTT against Pgrmc1,inactive: 1.64
11,CGAAGAUGCCAGUUAUGUUTT against Fndc11,inactive: -0.254
12,GGUUAUCCUCAUUGAUCCGTT against Rpl15,inactive: 0.0822
13,CGAGGUGCUAAUCUGGCCUTT against Dctpp1,inactive: 0.241
14,CCCUAUGGACUGAGUUUGUTT against Olfr183,inactive: -0.036
15,GGUAACUAACCUUAAUCUUTT against Slc16a1,inactive: -0.178
16,GCUAACGAAGGUAGUGUACTT against Gtpbp8,active: 3.34
17,CCUAUUUCCUUAUUUCCCGTT against Slc12a3,inactive: 0.531
18,CGUGAACGUAGAGUUUUCUTT against Fcrl5,active: 3.59

# Look-ups from the list.
# For z-score, GCUGUGGAACUUAUGUUUUTT against Faxc shows inactive: -0.518
# For z-score, CGUGAACGUAGAGUUUUCUTT against Fcrl5 shows active: 3.59
# For z-score, GGUAACUAACCUUAAUCUUTT against Slc16a1 shows inactive: -0.178
